Results as given in patent publication US20160250142A1, “INHALED AEROSOLIZED IMMUNO-CHEMOTHERAPY FOR THE TREATEMENT OF MDR TB” (priority 2013, published 2016).
At least one structure is not confirmed: it was looked up by name or label, or the drawing left a doubt.

Assay: NGI impactor test of nebulized respiratory solutions (aerosol particle size)
Type: physicochemical
Conditions: fractions by HPLC
Procedure: FIG. 1. Graphical representation of the NGI impactor test for Metronidazole respiratory solution (8 mg/mL).
FIG. 2. Graphical representation of the NGI impactor test for Amikacin respiratory solution (200 mg/mL).
FIG. 3. Graphical representation of the NGI impactor test for Levofloxacin respiratory solution (250 mg/mL).
The nebulization drug formulations were nebulized and passed through an NGI impactor (Westech Corporation). These experiments show the fraction of drug in various stages of the impactor (FIGS. 1-3). It was shown that significant amounts of the drug compounds were obtained at the different stages, which corresponds to the respirable fraction that would be deposited in the lungs. The drug fractions were analyzed by HPLC.

**Q.** For C[C@H]1COc2c(N3CCN(C)CC3)c(F)cc3c(=O)c(C(=O)O)cn1c23 [Levofloxacin], which “Droplets produced on nebulization” value is on record?
**A.** The value was “droplets in the respirable range”.
